Data: publication PMC12168282

T1: membrane-associated ring-CH-type finger 8 (UniProt Q9DBD2)
T1 sequence: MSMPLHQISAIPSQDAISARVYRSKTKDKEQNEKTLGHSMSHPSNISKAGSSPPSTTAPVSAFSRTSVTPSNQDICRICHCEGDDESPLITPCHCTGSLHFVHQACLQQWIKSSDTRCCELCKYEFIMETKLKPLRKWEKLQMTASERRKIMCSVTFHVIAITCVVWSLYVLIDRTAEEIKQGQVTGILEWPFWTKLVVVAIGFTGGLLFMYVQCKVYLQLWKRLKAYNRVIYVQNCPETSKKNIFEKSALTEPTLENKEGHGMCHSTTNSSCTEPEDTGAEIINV

B1: membrane-associated ring-CH-type finger 8 (protein, UniProt Q9DBD2 1-286)
chain: MSMPLHQISAIPSQDAISARVYRSKTKDKEQNEKTLGHSMSHPSNISKAGSSPPSTTAPVSAFSRTSVTPSNQDICRICHCEGDDESPLITPCHCTGSLHFVHQACLQQWIKSSDTRCCELCKYEFIMETKLKPLRKWEKLQMTASERRKIMCSVTFHVIAITCVVWSLYVLIDRTAEEIKQGQVTGILEWPFWTKLVVVAIGFTGGLLFMYVQCKVYLQLWKRLKAYNRVIYVQNCPETSKKNIFEKSALTEPTLENKEGHGMCHSTTNSSCTEPEDTGAEIINV

Columns and labels:
[1] = biological target: T1, membrane-associated ring-CH-type finger 8; test: co-IP; cell lysate incubated with GPX4 or MARCHF8 antibody or control IgG at 4 C for 3 h, protein A/G magnetic beads overnight, Western blot; control and QG-treated cells
glutathione peroxidase 4 = test: as above

Row | Molecule | binding [1] | binding (glutathione peroxidase 4)
1 | glutathione peroxidase 4 | binds | –
2 | B1 | – | binds

Results are given in words; binding and its absence hold for the method and conditions named. Binding seen in cells or lysates may run through a third protein. Binding can be weak; no strength is given.
